{"source": "patent US12139558B2", "about": "(Ferring B.V., priority 2017, dated 2024)", "assay": "peptide synthesis", "conditions": "whole synthesis, UV 220 nm, relative UV area % of total area", "data": [{"substance": "carbetocin", "values": [{"measurement": "crude HPLC purity", "result": "approximately 91.3%"}]}]}
